Test results published in the supplement of paper PMC8426693.
Some of the results follow.

How the values were obtained:
Test in all cases: NMR binding call after quantification (hit when 2 of 3 NMR criteria are met) (binary (1 = binding, 0 = not binding)); higher = binding
Conditions in all cases: RNA concentration 10 µM; fragment concentration 200 µM; 293 K
[1] = test system: SARS-CoV-2 3'-UTR RNA
[2] = test system: SARS-CoV-2 3_SL1 RNA
[3] = test system: SARS-CoV-2 3_SL1+2 RNA
[4] = test system: SARS-CoV-2 3_SL2 RNA
[5] = test system: SARS-CoV-2 3_SL3base RNA
[6] = test system: SARS-CoV-2 3_s2m RNA
[7] = test system: SARS-CoV-2 5'-UTR RNA
[8] = test system: SARS-CoV-2 5_SL1 RNA
[9] = test system: SARS-CoV-2 5_SL1234 RNA
[10] = test system: SARS-CoV-2 5_SL2+3 RNA
[11] = test system: SARS-CoV-2 5_SL4 RNA
[12] = test system: SARS-CoV-2 5_SL5 RNA
[13] = test system: SARS-CoV-2 5_SL5a RNA
[14] = test system: SARS-CoV-2 5_SL5b+c RNA
[15] = test system: SARS-CoV-2 5_SL5stem RNA
[16] = test system: SARS-CoV-2 5_SL6 RNA

Measured: NMR binding call

Nc1cc(C(F)(F)F)ccc1N1CCCCC1
0: all assays above

CC1COCCN1Cc1ccccc1F (stereo unspecified)
0: all assays above

CC(=O)Nc1cccnc1C(=O)O
0: all assays above

CC1CCOC1C(=O)Nc1cnns1 (stereo unspecified)
0: all assays above

OC1CCN(Cc2ccc(Cl)cc2)C1 (stereo unspecified)
0: all assays above

CC(=O)N1CC(O)CC1C(=O)O (stereo unspecified)
0: all assays above

CC1CCN(Cc2c[nH]c3ccccc23)CC1
0: all assays above

COC(=O)C1CCN(C(=O)NC(C)(C)C)CC1
0: all assays above

CC(=O)N1CCC(c2c[nH]c3ccccc23)CC1
0: all assays above

CC(N)CN1CCOCC1 (stereo unspecified)
0: all assays above

O=S1(=O)CCCN1Cc1cccc(F)c1
0: all assays above

CCOc1ccc(CC(=O)O)cc1
0: all assays above

O=C(NCCc1ccccc1)NC1CCCCC1
0: all assays above

COc1ccc(C(N)C(=O)O)cc1 (stereo unspecified)
0: all assays above

Cc1[nH]cnc1CN1CCc2ccccc2C1
0: all assays above

CN(C)CCN1C(=O)c2ccccc2C1=O
0: all assays above

Oc1ccc(CNC2CCCCC2)cc1
0: all assays above

CC(=O)Nc1ccc(Nc2ccccc2)cc1
0: all assays above

CS(=O)(=O)NC1(C(=O)O)CCCCC1
0: all assays above

CS(=O)(=O)N1CCN(Cc2ccco2)CC1.O=C(O)C(=O)O
0: all assays above

CC(C)NC(=O)CN1CCCNCC1
0: all assays above

O=C1CN(C(=O)COc2ccccc2)CCN1
0: all assays above

O=C(Nc1ccc(F)cc1)Nc1ccc(F)cc1
0: all assays above

O=C(Nc1ccc(Cl)cc1)Nn1cnnc1
0: all assays above

CC1CNCCN1CCO (stereo unspecified)
0: all assays above

OC1CCN(Cc2ccsc2)CC1
0: all assays above

N#Cc1ccc(CNCc2ccc(F)cc2)cc1
0: all assays above

Cc1cc(C(=O)NC(C)C)nn1C
0: all assays above

Cc1ccc(OCC(=O)N2CCOCC2)c(C)c1
0: all assays above

CCn1nccc1CNC.Cl.Cl
0: all assays above

CNC(=O)c1cnc(C)s1
0: all assays above

Cn1ccc(C(=O)NCC2CCCO2)n1 (stereo unspecified)
0: all assays above

CC(=O)N1CCC(NCCc2ccccc2)CC1
0: all assays above

CN1CCN(C(=O)Nc2ccccc2)CC1
0: all assays above

Cc1nc(C)n(CCC(=O)O)n1
0: all assays above

CC(C)(C(N)=O)c1ccccc1
0: all assays above

Ordered by count of non-hydrogen atoms (ascending): some entries from above
CC(C)(C(N)=O)c1ccccc1
0: all assays above

CN1CCN(C(=O)Nc2ccccc2)CC1
0: all assays above

CC(=O)N1CCC(NCCc2ccccc2)CC1
0: all assays above
